Data reported in paper PMC4380498, “Molecular Insights into Frataxin-Mediated Iron Supply for Heme Biosynthesis in Bacillus subtilis” (PLoS ONE, 2015).
No constants are given. Whether binding was seen depends on the method and setting. In cells and extracts the contact can be indirect. A yes stands for co-enrichment or nearness to the bait. Other partners may have been found. Sequences can lack the tags named with a protein.

Molecular target: T1, His6-tagged Fra expressed in B. subtilis 168 AM09 (Bacillus subtilis 168) (UniProt Q797E6)
T1 sequence: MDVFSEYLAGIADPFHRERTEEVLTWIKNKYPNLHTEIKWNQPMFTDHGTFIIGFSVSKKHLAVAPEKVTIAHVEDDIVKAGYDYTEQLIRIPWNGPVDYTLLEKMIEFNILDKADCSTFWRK
Assay: affinity purification with mass spectrometry; crude extract of B. subtilis AM09 (His6-Fra) on a Ni2+-NTA spin column; washed with 20 mM imidazole, eluted with 500 mM imidazole; SDS-PAGE bands identified by peptide mass fingerprinting; WT extract as control

binding: binds
B1: ferrochelatase HemH, endogenous in B. subtilis 168 AM09 (enzyme, UniProt P32396 1-310)
chain: MSRKKMGLLVMAYGTPYKEEDIERYYTHIRRGRKPEPEMLQDLKDRYEAIGGISPLAQITEQQAHNLEQHLNEIQDEITFKAYIGLKHIEPFIEDAVAEMHKDGITEAVSIVLAPHFSTFSVQSYNKRAKEEAEKLGGLTITSVESWYDEPKFVTYWVDRVKETYASMPEDERENAMLIVSAHSLPEKIKEFGDPYPDQLHESAKLIAEGAGVSEYAVGWQSEGNTPDPWLGPDVQDLTRDLFEQKGYQAFVYVPVGFVADHLEVLYDNDYECKVVTDDIGASYYRPEMPNAKPEFIDALATVVLKKLGR
